Measured values reported in article PMC12144199.
These are yes or no findings as the source states them, for the method shown. Binding seen in cells or lysates may run through a third protein. Some results given as binding are weak or reduced against the parent protein; the word gives no strength.

Protein sequences, listed by entry. Tags and fused reporters are not part of them.
UniProt P07355: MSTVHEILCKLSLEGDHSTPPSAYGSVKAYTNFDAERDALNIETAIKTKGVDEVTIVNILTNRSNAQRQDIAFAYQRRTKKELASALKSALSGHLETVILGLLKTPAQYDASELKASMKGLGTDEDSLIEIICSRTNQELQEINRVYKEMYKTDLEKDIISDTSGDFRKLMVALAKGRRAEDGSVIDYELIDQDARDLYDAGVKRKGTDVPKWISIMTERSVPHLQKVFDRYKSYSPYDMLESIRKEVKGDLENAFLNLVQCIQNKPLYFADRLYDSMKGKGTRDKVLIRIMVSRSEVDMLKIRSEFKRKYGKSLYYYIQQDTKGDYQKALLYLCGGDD

Molecular target: T1, S100A16 (human (endogenous in U2OS and MG-63)) (UniProt Q96FQ6)
T1 sequence: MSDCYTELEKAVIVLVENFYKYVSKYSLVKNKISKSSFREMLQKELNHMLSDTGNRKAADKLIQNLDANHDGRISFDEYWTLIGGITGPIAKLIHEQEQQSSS
Test: co-IP; endogenous co-IP from U2OS and MG-63 RIPA lysates (1 mg protein); S100A16 antibody or ANXA2 antibody overnight at 4 °C, protein A/G magnetic beads 2 h; Western blot for S100A16 and ANXA2

Annexin A2 (from UniProt P07355 1-339)
binding: binds
